Measurements: PMC2683825

How the values were obtained:
[1] = biological target: T1, V5-tagged recombinant Ac-FTT-2 (Ancylostoma caninum 14-3-3 protein) (Ancylostoma caninum) (UniProt C3V6I8); experiment: co-IP; reciprocal: anti-V5 resin on lysates of co-transfected HEK293 cells treated with 20% serum; same buffers; Western blot with DAF-16 antiserum and anti-V5/HRP
T1 sequence: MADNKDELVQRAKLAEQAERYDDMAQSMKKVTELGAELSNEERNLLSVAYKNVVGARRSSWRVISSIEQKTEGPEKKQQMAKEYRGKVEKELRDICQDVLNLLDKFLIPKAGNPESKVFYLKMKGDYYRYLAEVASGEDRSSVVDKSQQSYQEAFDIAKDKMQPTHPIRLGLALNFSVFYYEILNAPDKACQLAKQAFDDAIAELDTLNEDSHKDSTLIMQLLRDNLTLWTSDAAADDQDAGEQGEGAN

[2] = biological target: FLAG-tagged Ac-DAF-16 S107A/S381A (Ancylostoma caninum); experiment: co-IP; anti-FLAG M2 agarose on lysates of co-transfected HEK293 cells treated with 20% serum; lysis in 50 mM NaCl, 50 mM Tris-HCl pH 7.5, 0.1% NP-40, 5 mM EDTA with phosphatase and protease inhibitors; overnight at 4 C; Western blot for Ac-FTT-2 and with DAF-16 antiserum
[3] = biological target: FLAG-tagged Ac-DAF-16 S107A (Ancylostoma caninum); experiment: as above
[4] = biological target: FLAG-tagged Ac-DAF-16 S107A/T312A (Ancylostoma caninum); experiment: as above
[5] = biological target: FLAG-tagged A. caninum forkhead transcription factor DAF-16 (wild type) (Ancylostoma caninum) (UniProt B3G3K1); experiment: as above
[6] = biological target: FLAG-tagged Ac-DAF-16 S381A (Ancylostoma caninum); experiment: as above

In the case of “FLAG-tagged A. caninum forkhead transcription factor DAF-16 (wild type) (from UniProt B3G3K1)”, the binding [1] is reported as “binds”.

B1: V5-tagged recombinant Ac-FTT-2 (Ancylostoma caninum 14-3-3 protein) (protein, UniProt C3V6I8 1-249)
chain: MADNKDELVQRAKLAEQAERYDDMAQSMKKVTELGAELSNEERNLLSVAYKNVVGARRSSWRVISSIEQKTEGPEKKQQMAKEYRGKVEKELRDICQDVLNLLDKFLIPKAGNPESKVFYLKMKGDYYRYLAEVASGEDRSSVVDKSQQSYQEAFDIAKDKMQPTHPIRLGLALNFSVFYYEILNAPDKACQLAKQAFDDAIAELDTLNEDSHKDSTLIMQLLRDNLTLWTSDAAADDQDAGEQGEGAN
With B1 the binding [2] was “no binding”, the binding [3] was “no binding” and the binding [4] was “no binding”. The binding [5] was “binds” and the binding [6] was “binds”.

Results are given in words; binding and its absence hold for the method and conditions named. In cells and extracts the contact can be indirect. For part of these data: Binding calls can cover weak binding; strength is not graded here. Where a sequence is shown, tags or fusion partners need not be part of it.
